In US9517222B2, “Method for the treatment of senile dementia of the Alzheimer's type” (Phenomenome Discoveries Inc., priority 2007, dated 2016):
A unit is not stated for every read-out.

Assay: Serum ethanolamine phospholipid levels in human cohorts (dementia severity, post-mortem pathology, age) by flow-injection MS/MS

With CCCCC/C=C\C/C=C\C/C=C\C/C=C\CCCC(=O)O [Metabolite M26, Free 20:4] the “Ratio of serum levels” value (AD, All to CN, Male) was 0.978, the “Ratio of serum levels” value (ADAS 5-19 to CN, Male) was 1.023 and the “Ratio of serum levels” value (ADAS 20-39 to 5-19, Male) was 0.946. The “Ratio of serum levels” value (ADAS 20-39 to CN, Male) was 0.968, the “Ratio of serum levels” value (ADAS 40-70 to 5-19, Male) was 0.887 and the “Ratio of serum levels” value (ADAS 40-70 to 20-39, Male) was 0.937. The “Ratio of serum levels” value (ADAS 40-70 to CN, Male) was 0.907, the “Serum level, Mean” value (Cognitive Normal, Female) was 0.069 and the “Average serum level, Mean” value (Cognitive Normal, Male) was 0.072. The “Serum level, Mean” value (Post Mortem Ctl, Male) was 0.073, the “Serum level, Mean” value (Post Mortem SDAT Male) was 0.050 and the “Ratio of serum levels” value (Post mortem SDAT vs Control, Male) was 0.684. For the same compound, the “Serum level, Mean” value (SDAT, ADAS 5-19, Female) was 0.076, the “Average serum level, Mean” value (SDAT, ADAS 5-19, Male) was 0.074 and the “Serum level, Mean” value (SDAT, ADAS 20-39, Female) was 0.072. For the same compound, the “Average serum level, Mean” value (SDAT, ADAS 20-39, Male) was 0.070, the “Serum level, Mean” value (SDAT, ADAS 40-70, Female) was 0.072 and the “Average serum level, Mean” value (SDAT, ADAS 40-70, Male) was 0.065. The “Serum level, Mean” value (SDAT_all, Female) was 0.073, the “Average serum level, Mean” value (SDAT_all, Male) was 0.070 and the “Ratio, ADAS 5-19 to CN, Female” value (serum level ratio, females, ADAS 5-19 vs CN) was 1.092. The “Ratio, ADAS 20-39 to 5-19, Female” value (serum level ratio, females, ADAS 20-39 vs ADAS 5-19) was 0.955, the “Ratio, ADAS 20-39 to CN, Female” value (serum level ratio, females, ADAS 20-39 vs CN) was 1.043 and the “Ratio, ADAS 40-70 to 5-19, Female” value (serum level ratio, females, ADAS 40-70 vs ADAS 5-19) was 0.954. The “Ratio, ADAS 40-70 to 20-39, Female” value (serum level ratio, females, ADAS 40-70 vs ADAS 20-39) was 0.998, the “Ratio, ADAS 40-70 to CN, Female” value (serum level ratio, females, ADAS 40-70 vs CN) was 1.041 and the “Ratio, 50-59 vs. 40-49, Female” value (serum level ratio, females, age 50-59 vs 40-49) was 1.003. For the same compound, the “Ratio, 60-69 vs. 40-49, Female” value (serum level ratio, females, age 60-69 vs 40-49) was 1.021, the “Ratio, 70+ vs. 40-49, Female” value (serum level ratio, females, age 70+ vs 40-49) was 1.159 and the “Ratio, AD, All to CN, Female” value (serum level ratio, females, all AD vs cognitively normal) was 1.056. The “Ratio, Autopsy AD vs. Control, Female” value (serum level ratio, females, autopsy AD vs control) was 1.123, the “Ratio, 50-59 vs. 40-49, Male” value (serum level ratio, males, age 50-59 vs 40-49) was 1.175 and the “Ratio, 60-69 vs. 40-49, Male” value (serum level ratio, males, age 60-69 vs 40-49) was 1.324. For the same compound, the “Ratio, 70+ vs. 40-49, Male” value (serum level ratio, males, age 70+ vs 40-49) was 1.389, the “Mean serum level, Age Ctl, 30-39, Female” value (serum, females, age 30-39) was 0.091 and the “Mean serum level, Age Ctl, 40-49, Female” value (serum, females, age 40-49) was 0.093. For the same compound, the “Mean serum level, Age Ctl, 50-59, Female” value (serum, females, age 50-59) was 0.093, the “Mean serum level, Age Ctl, 60-69, Female” value (serum, females, age 60-69) was 0.094 and the “Mean serum level, Age Ctl, 70+, Female” value (serum, females, age 70+) was 0.107. For the same compound, the “Mean serum level, Post Mortem SDAT, Female” value (serum, females, post mortem SDAT) was 0.061, the “Mean serum level, Post Mortem Ctl, Female” value (serum, females, post mortem control) was 0.054 and the “Mean serum level, Age Ctl, 30-39, Male” value (serum, males, age 30-39) was 0.091. The “Mean serum level, Age Ctl, 40-49, Male” value (serum, males, age 40-49) was 0.082, the “Mean serum level, Age Ctl, 50-59, Male” value (serum, males, age 50-59) was 0.096 and the “Mean serum level, Age Ctl, 60-69, Male” value (serum, males, age 60-69) was 0.109. The “Mean serum level, Age Ctl, 70+, Male” value (serum, males, age 70+) was 0.114.
